Data: patent CN117567612A

Tests used:
[1] = target: CLDN18.2; assay: flow cytometry on overexpressing cells (Fig. 1)
[2] = target: CLDN18.2; assay: flow cytometry titration and kinetics (Fig. 2, Table 1)
[3] = target: CLDN18.2; assay: flow cytometry on stably transfected CHO cells (cell pool)

Measured: binding

B1: CLDN-BC-P1022-hH1 (antibody, V domains shown)
VH: QVQLVQSGGGLVQPGGSLRLSCAASGFTFSSYEMNWVRQAPGKGLEWVAYITGSGRTMYYADSVKGRITISRDNAKNSLYLQMNSLRAEDTAVYYCARYWNYAGGMDVWGQGTLVTVSS
VL: DIQMTQSPSSVSASVGDRVTITCRASQGISSWLAWYQQKPGKAPKLLIYAASSLQSGVPSRFSGSGSGTDFTLTISSLQPEDFATYYCQQANSFPLTFGGGTKVEIK
binds: [1] | [2] | [3]

No constants are given. Whether binding was seen depends on the method and setting. A result given as binding can be weak or reduced; the word gives no strength.
